Measurements taken from patent US20250277022A1.
These are yes or no findings as the source states them, for the method shown. Some entries that bind do so weakly or less than the wild type.

The binders below were run against cynomolgus monkey TSLP (cynomolgus monkey) (assay: ELISA, antigen coated, IgG1).

binding | Binder
binds | TSLP-03 (antibody, V domains shown) VH: EVQLVESGGGLVQPGGSLRLSCAASGFTFSNYDMTWVRQAPGKGLEWVSSITFASSYIYYADSVKGRFTISRDNAKNSLSLQMNSLRAEDTAVYYCTRGGGAYHGGSLDVWGQGVLVTVSS VL: DIVMTQTPLSLSVTPGEPASISCRSSQSLLHINGYTYLHWYLQKPGQSPQLLIYLVSHRASGVPDRFSGSGSDTDFTLKISRVEAEDVGVYYCEQTLQTPYSFGGGTKVEIK
binds | TSLP-04 (antibody, V domains shown) V domain 1: QEQLVQSGDEVKKPGASVKVSCKSSGFTFGSYAISWVRQAPGQGLEWMGMLVPLLGVTNYAEKFQGRVTITADPSTTTTSMELSSLRSEDTAVYYCARGGSNYLYWYFDLWGPGTPITVSS V domain 2: QSAPIQPRSVSGSPGQSVTISCTGTSSDIGGYNRISWYQQHPGKAPKLMIYDVSKRPSGVSDRFSGSKSGNTASLTISGLQAEDEADYYCSSYAGTDTFVLFGGGTQLTIV
binds | TSLP-02 (antibody, V domains shown) VH: QVQLVQSGAEVKKPGSSVKVSCKASGFTFGSYGINWVRQAPGQGLEWLGVIVPLVGVTIYAEKFQGRVTITADTSTSTAYMELSSLRSEDTAVYYCARGQEYFYWYFDLWGQGTLVTVSS VL: QSALTQPPSASGSPGQSVTISCSGSSSDIGGYNRVSWYQQHPGKAPKLMIYDVSKRPSGVPDRFSGSKSGNTASLTVSGLQAEDEADYYCSSYAGTDTFILFGGGTKLTVL

The binders below were run against cynomolgus monkey TSLP (cynomolgus monkey) (assay: ELISA, plate coated with cynomolgus monkey TSLP, test antibodies as human IgG1).

Binder | binding
TSLP-03 (antibody, V domains shown) VH: EVQLVESGGGLVQPGGSLRLSCAASGFTFSNYDMTWVRQAPGKGLEWVSSITFASSYIYYADSVKGRFTISRDNAKNSLSLQMNSLRAEDTAVYYCTRGGGAYHGGSLDVWGQGVLVTVSS VL: DIVMTQTPLSLSVTPGEPASISCRSSQSLLHINGYTYLHWYLQKPGQSPQLLIYLVSHRASGVPDRFSGSGSDTDFTLKISRVEAEDVGVYYCEQTLQTPYSFGGGTKVEIK | binds
TSLP-0301 (antibody, V domains shown) VH: EVQLVESGGGLVQPGGSLRLSCAASGFTFSNYDMTWVRQAPGKGLEWVSSITFASSYIYYADSVKGRFTISRDNAKNSLSLQMNSLRAEDTAVYYCTRGGGAYYGGSLDVWGQGVLVTVSS VL: DIVMTQTPLSLSVTPGEPASISCRSSQSLLHSNEYTYLHWYLQKPGQSPQLLIYLVSHRASGVPDRFSGSGSDTDFTLKISRVEAEDVGVYYCEQTLQTPFTFGGGTKVEIK | binds
TSLP-0111 (antibody, V domains shown) VH: QVQLQESGPGLVKPSETLSLTCAVSGYSISSGYGWSWIRQPPGKGLEWIGYFSYYGSTSYNPSLKSRVTISRDTSKNQFSLKLSSVTAADTAVYYCARTNLLYFDSWGQGTLVTVSS VL: EIVMTQSPATLSLSPGERATLSCRASQSVSSNLAWYQQKPGQAPRLLIYDASSRATGIPARFSGSGSGTDFTLTISSLEPEDFAVYYCQQYSNWPQYSFGQGTKVEIK | binds
TSLP-0112 (antibody, V domains shown) VH: QVQLQESGPGLVKPSETLSLTCAVSGYSISSGYGWSWIRQPPGKGLEWIGYISYYGSTSYNPSLKSRVTISRDTSKNQFSLKLSSVTAADTAVYYCARTNLLYFDYWGQGTLVTVSS VL: EIVMTQSPATLSLSPGERATLSCRASQSVSSYLAWYQQKPGQAPRLLIYDASSRATGIPARFSGSGSGTDFTLTISSLEPEDFAVYYCQQYSDWPQYSFGQGTKVEIK | binds
TSLP-0205 (antibody, V domains shown) VH: QVQLVQSGAEVKKPGSSVKVSCKASGFTFGSYGINWVRQAPGQGLEWLGVIVPLVGVTIYAEKFQGRVTITADTSTSTAYMELSSLRSEDTAVYYCARGQEYFYWYFDLWGQGTLVTVSS VL: QSALTQPPSASGSPGQSVTISCTGTTSDIGGYNRVSWYQQHPGKAPKLMIYEVSKRPSGVPDRFSGSKSGNTASLTVSGLQAEDEADYYCSSYAGTDTFAIFGGGTKLTVL | binds
TSLP-0202 (antibody, V domains shown) VH: QVQLVQSGAEVKKPGSSVKVSCKASGFTFGSYGINWVRQAPGQGLEWMGVIVPLVGVTIYAEKFQGRVTITADESTSTAYMELSSLRSEDTAVYYCARGQEYFYWYFDLWGQGTLVTVSS VL: QSALTQPPSASGSPGQSVTISCSGSSSDIGGYNRVSWYQQHPGKAPKLMIYDVSKRPSGVPDRFSGSKSGNTASLTVSGLQAEDEADYYCSSYAGTDTFILFGGGTKLTVL | binds
TSLP-0204 (antibody, V domains shown) VH: QVQLVQSGAEVKKPGSSVKVSCKASGFTFGSYGINWVRQAPGQGLEWLGVIVPLVGVTIYAEKFQGRVTITADTSTSTAYMELSSLRSEDTAVYYCARGQEYFYWYFDLWGQGTLVTVSS VL: QSALTQPPSASGSPGQSVTISCTGTSSDIGGYNRVSWYQQHPGKAPKLMIYEVNKRSSGVPDRFSGSKSGNTASLTVSGLQAEDEADYYCTSYAGTDTFVLFGGGTKLTVL | binds
TSLP-0208 (antibody, V domains shown) VH: QVQLVQSGAEVKKPGSSVKVSCKASGFTFGSYGISWVRQAPGQGLEWLGVIIPLLGVPNYAEKFQGRVTITADTSTSTAYMELSSLRSEDTAVYYCARGAEYFYWYFDLWGQGTLVTVSS VL: QSALTQPPSASGSPGQSVTISCTGSNSDIGGYNRVSWYQQHPGKAPKLMIYEISKRPSGVPDRFSGSKSGNTASLTVSGLQAEDEADYYCSSYAGTDTFVLFGGGTKLTVL | binds
TSLP-02 (antibody, V domains shown) VH: QVQLVQSGAEVKKPGSSVKVSCKASGFTFGSYGINWVRQAPGQGLEWLGVIVPLVGVTIYAEKFQGRVTITADTSTSTAYMELSSLRSEDTAVYYCARGQEYFYWYFDLWGQGTLVTVSS VL: QSALTQPPSASGSPGQSVTISCSGSSSDIGGYNRVSWYQQHPGKAPKLMIYDVSKRPSGVPDRFSGSKSGNTASLTVSGLQAEDEADYYCSSYAGTDTFILFGGGTKLTVL | binds

Next, values leading:

binding | Binder
binds | TSLP-0302 (antibody, V domains shown) VH: EVQLVESGGGLVQPGGSLRLSCAASGFTFSNYGMTWVRQAPGKGLEWVSSITFASSYIYYADSVKGRFTISRDNAKNSLSLQMNSLRAEDTAVYYCTRGGGAYYGGSLDVWGQGVLVTVSS VL: DIVMTQTPLSLSVTPGEPASISCRSSQSLLHSYGYTYLHWYLQKPGQSPQLLIYLVSYRASGVPDRFSGSGSDTDFTLKISRVEAEDVGVYYCEQTLQTPYTFGGGTKVEIK
binds | TSLP-0401 (antibody, V domains shown) V domain 1: QEQLVQSGDEVKKPGASVKVSCKSSGFTFGSYAISWVRQAPGQGLEWMGMIIPLLGVTDYAEKFQGRVTITADPSTTTTSMELSSLRSEDTAVYYCARGGTNYLYWYFDLWGPGTPITVSS V domain 2: QSAPIQPRSVSGSPGQSVTISCTGTSSDIGGYNRVSWYQQHPGKAPKLMIYEVSKRPSGVSDRFSGSKSGNTASLTISGLQAEDEADYYCSAYAGTDTFVLFGGGTQLTIV
binds | TSLP-0108 (antibody, V domains shown) VH: QVQLQESGPGLVKPSETLSLTCAVSGYSISSGYGWSWIRQPPGKGLEWIGYISYYGSTSYNPSLKSRVTISRDTSKNQFSLKLSSVTAADTAVYYCARTNLLYFDSWGQGTLVTVSS VL: EIVMTQSPATLSLSPGERATLSCRASQSVSNNLAWYQQKPGQAPRLLIYDASSRATGIPARFSGSGSGTDFTLTISSLEPEDFAVYYCQQYSDWPEYSFGQGTKVEIK
binds | TSLP-0110 (antibody, V domains shown) VH: QVQLQESGPGLVKPSETLSLTCAVSGYSISSGYGWSWIRQPPGKGLEWIGYISYYGSTSYNPSLKSRVTISRDTSKNQFSLKLSSVTAADTAVYYCARTNLLYFDSWGQGTLVTVSS VL: EIVMTQSPATLSLSPGERATLSCRASQSVSSYLAWYQQKPGQAPRLLIYDTSSRATGIPARFSGSGSGTDFTLTISSLEPEDFAVYYCQQYSNWPQYSFGQGTKVEIK
binds | TSLP-0109 (antibody, V domains shown) VH: QVQLQESGPGLVKPSETLSLTCAVSGYSISSGYGWSWIRQPPGKGLEWIGYISYYGSTSYNPSLKSRVTISRDTSKNQFSLKLSSVTAADTAVYYCARTNLLYFESWGQGTLVTVSS VL: EIVMTQSPATLSLSPGERATLSCRASQGISSYLAWYQQKPGQAPRLLIYDASNLQSGIPARFSGSGSGTDFTLTISSLEPEDFAVYYCQQYSNWPQYSFGQGTKVEIK
binds | TSLP-0203 (antibody, V domains shown) VH: QVQLVQSGAEVKKPGSSVKVSCKASGFTFGSYGINWVRQAPGQGLEWLGVIVPLVGVTIYAEKFQGRVTITADTSTSTAYMELSSLRSEDTAVYYCARGQEYFYWYFDLWGQGTLVTVSS VL: QSALTQPPSASGSPGQSVTISCTGTSSDIGGYDRVSWYQQHPGKAPKLMIYGVSKRPSGVPDRFSGSKSGNTASLTVSGLQAEDEADYYCSSYASGHTFGLFGGGTKLTVL
binds | TSLP-0206 (antibody, V domains shown) VH: QVQLVQSGAEVKKPGSSVKVSCKASGFTFGSYGISWVRQAPGQGLEWLGVIVPLVDVTIYAEKFQGRVTITADTSTSTAYMELSSLRSEDTAVYYCARGQEYFYWYFDLWGQGTLVTVSS VL: QSALTQPPSASGSPGQSVTISCTGTISDIGGYNRVSWYQQHPGKAPKLMIYEVSKRPSGVPDRFSGSKSGNTASLTVSGLQAEDEADYYCSSYAGTDTFVFFGGGTKLTVL
binds | TSLP-0201 (antibody, V domains shown) VH: QVQLVQSGAEVKKPGSSVKVSCKASGFTFGSYGINWVRQAPGQGLEWMGVIVPLVGVTIYAEKFQGRVTITADTSTSTAYMELSSLRSEDTAVYYCARGQEYFYWYFDLWGQGTLVTVSS VL: QSALTQPPSASGSPGQSVTISCSGSSSDIGGYNRVSWYQQHPGKAPKLMIYDVSKRPSGVPDRFSGSKSGNTASLTVSGLQAEDEADYYCSSYAGTDTFILFGGGTKLTVL
binds | TSLP-0207 (antibody, V domains shown) VH: QVQLVQSGAEVKKPGSSVKVSCKASGFTFGSYGISWVRQAPGQGLEWLGVIVPLVGVTIYAEKFQGRVTITADTSTSTAYMELSSLRSEDTAVYYCARGQEYFYWYFDLWGQGTLVTVSS VL: QSALTQPPSASGSPGQSVTISCTGTSSDIGGYNRVSWYQQHPGKAPKLMIYEFNKRPSGVPDRFSGSKSGNTASLTVSGLQAEDEADYYCSSYAGTDIFVLFGGGTKLTVL
